Reference: patent US20230134083A1
No constants are given. Whether binding was seen depends on the method and setting. Some binding calls cover weakened binding; strength is not graded here. For some assays here: Sequences can lack the tags named with a protein. Blank lines part the entries; values can stand above or below the molecule they belong to.

Protein sequences, listed by entry. Tags and fused reporters are not part of them. Residues count along the entry.
UniProt P27037, residues 21-135: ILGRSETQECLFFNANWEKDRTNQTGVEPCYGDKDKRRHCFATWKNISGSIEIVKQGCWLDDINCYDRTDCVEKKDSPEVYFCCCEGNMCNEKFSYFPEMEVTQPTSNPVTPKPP

Assays:
activin B [1] = target: T1, activin B (UniProt P09529); assay: Biacore (SPR); receptor Fc fusion captured by anti-Fc antibody, ligand injected
T1 sequence (looked up): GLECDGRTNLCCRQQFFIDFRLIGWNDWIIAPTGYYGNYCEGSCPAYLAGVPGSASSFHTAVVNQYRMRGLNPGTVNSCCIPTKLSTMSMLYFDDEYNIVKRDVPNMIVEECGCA

GDF11 [2] = target: T2, GDF11 (UniProt O95390); assay: as above
T2 sequence (looked up): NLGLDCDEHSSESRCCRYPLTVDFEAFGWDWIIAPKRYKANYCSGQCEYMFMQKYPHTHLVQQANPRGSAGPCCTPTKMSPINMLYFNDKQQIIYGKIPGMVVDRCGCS

GDF8 [3] = target: T3, GDF8 (UniProt O14793); assay: as above
T3 sequence (looked up): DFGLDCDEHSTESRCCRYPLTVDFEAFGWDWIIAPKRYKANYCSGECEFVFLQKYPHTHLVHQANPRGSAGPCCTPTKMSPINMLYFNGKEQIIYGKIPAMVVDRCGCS

BMP10 [4] = target: T4, BMP10 (UniProt O95393); assay: as above
T4 sequence (looked up): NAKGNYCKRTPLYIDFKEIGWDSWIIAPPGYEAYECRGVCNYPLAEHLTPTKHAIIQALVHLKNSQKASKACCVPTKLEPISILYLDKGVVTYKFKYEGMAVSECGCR

activin B [5] = target: T1, activin B; assay: Biacore (SPR) ligand binding data, FIG. 6
GDF11 [6] = target: T2, GDF11; assay: Biacore (SPR) ligand binding data, FIG. 6
activin B [7] = target: T1, activin B; assay: Biacore (SPR) ligand binding data, FIG. 5
GDF11 [8] = target: T2, GDF11; assay: Biacore (SPR) ligand binding data, FIG. 5
GDF8 [9] = target: T3, GDF8; assay: Biacore (SPR) ligand binding data, FIG. 5
BMP10 [10] = target: T4, BMP10; assay: Biacore (SPR) ligand binding data, FIG. 5
activin B [11] = target: T1, activin B; assay: Biacore (SPR); receptor Fc fusion captured by anti-Fc antibody, ligand injected; remark: listed apart in the source
GDF11 [12] = target: T2, GDF11; assay: as above; remark: listed apart in the source
GDF8 [13] = target: T3, GDF8; assay: as above; remark: listed apart in the source
BMP10 [14] = target: T4, BMP10; assay: as above; remark: listed apart in the source

binding (activin B [1]): binds | binding (GDF11 [2]): binds | binding (GDF8 [3]): binds | binding (BMP10 [4]): binds | binding (activin B [5]): binds | binding (GDF11 [6]): binds
Molecule: ActRIIA homodimer Fc fusion (from UniProt P27037 21-135)

binding (activin B [7]): binds | binding (GDF11 [8]): binds | binding (GDF8 [9]): binds | binding (BMP10 [10]): binds | binding (activin B [11]): binds | binding (GDF11 [12]): binds | binding (GDF8 [13]): binds | binding (BMP10 [14]): binds
B1: ActRIIB homodimer Fc fusion (Fc fusion, UniProt Q13705 20-134, looked up, not shown: a dimerising Fc or GST)
chain: GRGEAETRECIYYNANWELERTNQSGLERCEGEQDKRLHCYASWRNSSGTIELVKKGCWLDDFNCYDRQECVATEENPQVYFCCCEGNFCNERFTHLPEAGGPEVTYEPPPTAPT
